This assay deals with T1, DBD-COI1 (CORONATINE … 1) (Arabidopsis thaliana) (UniProt O04197).
T1 sequence: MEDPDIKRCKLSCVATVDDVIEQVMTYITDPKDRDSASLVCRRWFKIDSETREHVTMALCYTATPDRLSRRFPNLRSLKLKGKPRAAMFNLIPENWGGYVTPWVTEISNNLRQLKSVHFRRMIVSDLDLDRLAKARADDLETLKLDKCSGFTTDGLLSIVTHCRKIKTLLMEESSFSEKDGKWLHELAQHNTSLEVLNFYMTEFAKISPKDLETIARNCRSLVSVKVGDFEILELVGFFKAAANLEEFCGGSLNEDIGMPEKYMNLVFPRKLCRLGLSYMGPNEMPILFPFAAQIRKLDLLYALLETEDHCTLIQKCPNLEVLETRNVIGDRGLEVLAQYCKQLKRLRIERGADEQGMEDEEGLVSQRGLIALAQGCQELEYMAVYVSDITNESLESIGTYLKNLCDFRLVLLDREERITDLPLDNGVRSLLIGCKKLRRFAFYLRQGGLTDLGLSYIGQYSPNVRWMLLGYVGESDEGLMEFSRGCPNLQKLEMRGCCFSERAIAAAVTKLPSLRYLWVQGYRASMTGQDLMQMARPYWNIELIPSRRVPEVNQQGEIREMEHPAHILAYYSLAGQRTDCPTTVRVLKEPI
The assay is described as follows: two-hybrid; S. cerevisiae EGY48 [pSH18-34] co-expressing DBD-COI1 and AD-ASK1 or AD-ask1 C118A; SD-U-H-T media with X-Gal, with and without 100 uM SNP (NO donor), ambient light, 48 h; beta-galactosidase reporter.

Protein sequences, listed by entry. Tags and fused reporters are not part of them. Lines headed by an entry give the natural chain unless they say otherwise; changes in a name come on top.
UniProt Q39255: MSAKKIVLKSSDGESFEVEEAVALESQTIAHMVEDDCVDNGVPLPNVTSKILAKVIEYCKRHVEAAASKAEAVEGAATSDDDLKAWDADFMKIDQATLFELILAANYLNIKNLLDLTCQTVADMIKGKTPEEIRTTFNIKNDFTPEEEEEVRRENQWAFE

We go through 2 substances from publication PMC8854210.

These are yes or no findings as the source states them, for the method shown. Some results given as binding are weak or reduced against the parent protein; the word gives no strength.

Turning to “AD-ASK1 (Arabidopsis thaliana SKP1, S-PHASE KINASE-ASSOCIATED PROTEIN 1) (from UniProt Q39255 1-160)”, the binding result is given as “binds”.

In the case of “AD-ask1 C118A (from UniProt Q39255 1-160)”, the binding result is given as “binds”.
